Assay results taken from paper PMC11907943.
Results are given in words; binding and its absence hold for the method and conditions named. In cells and extracts the contact can be indirect. Some results given as binding are weak or reduced against the parent protein; the word gives no strength.

By UniProt entry, the sequences of proteins in these tests, tags left out. Residues count along the entry.
UniProt P63158: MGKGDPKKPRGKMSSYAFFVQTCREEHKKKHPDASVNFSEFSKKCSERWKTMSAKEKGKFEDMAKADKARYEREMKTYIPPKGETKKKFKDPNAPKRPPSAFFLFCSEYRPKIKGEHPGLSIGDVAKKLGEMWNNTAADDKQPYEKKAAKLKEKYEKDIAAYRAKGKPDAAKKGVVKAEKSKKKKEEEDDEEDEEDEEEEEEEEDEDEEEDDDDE
UniProt Q9QUK6, residues 26-835: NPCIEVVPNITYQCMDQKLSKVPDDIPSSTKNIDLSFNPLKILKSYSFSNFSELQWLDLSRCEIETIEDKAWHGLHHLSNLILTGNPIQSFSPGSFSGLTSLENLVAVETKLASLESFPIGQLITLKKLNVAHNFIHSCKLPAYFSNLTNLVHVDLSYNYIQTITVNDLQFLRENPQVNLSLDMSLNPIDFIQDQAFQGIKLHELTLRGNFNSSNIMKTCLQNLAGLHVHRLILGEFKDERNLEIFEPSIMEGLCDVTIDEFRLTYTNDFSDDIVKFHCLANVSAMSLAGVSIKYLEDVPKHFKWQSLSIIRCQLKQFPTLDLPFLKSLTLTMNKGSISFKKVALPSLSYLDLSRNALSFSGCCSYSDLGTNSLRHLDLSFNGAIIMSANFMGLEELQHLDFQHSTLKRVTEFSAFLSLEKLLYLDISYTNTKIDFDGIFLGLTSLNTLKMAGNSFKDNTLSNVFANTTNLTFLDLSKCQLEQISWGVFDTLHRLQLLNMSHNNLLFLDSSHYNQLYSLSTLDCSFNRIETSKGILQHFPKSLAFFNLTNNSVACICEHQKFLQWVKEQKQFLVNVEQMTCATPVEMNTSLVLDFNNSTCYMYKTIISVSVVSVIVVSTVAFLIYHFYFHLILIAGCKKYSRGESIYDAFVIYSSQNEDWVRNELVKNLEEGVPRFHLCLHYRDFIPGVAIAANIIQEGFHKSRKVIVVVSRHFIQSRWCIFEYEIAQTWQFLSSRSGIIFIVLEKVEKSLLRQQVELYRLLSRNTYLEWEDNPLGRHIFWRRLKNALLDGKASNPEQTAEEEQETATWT

Biological target: HMGB1 (UniProt P63158)
Assay: co-IP; cell lysates (Pierce IP lysis buffer with protease inhibitors) incubated overnight at 4 °C with anti-HMGB1 or anti-TLR4 antibody or control IgG, Protein A/G PLUS-Agarose, beads washed three times with PBS; immunoblot with anti-HMGB1 and anti-TLR4; cells not named

TLR4 (from UniProt Q9QUK6 26-835) (receptor)
binding: binds
